Laboratory results reported in publication PMC5561080, “The Gαi-GIV binding interface is a druggable protein-protein interaction” (Scientific Reports, 2017).
No constants are given. Whether binding was seen depends on the method and setting. For some assays here: Binding seen in cells or lysates may run through a third protein. Some entries that bind do so weakly or less than the wild type. For some assays here: Tags and fused reporters may be left off the sequences shown.

Protein sequences, listed by entry. Tags and fused reporters are not part of them.
UniProt P08753: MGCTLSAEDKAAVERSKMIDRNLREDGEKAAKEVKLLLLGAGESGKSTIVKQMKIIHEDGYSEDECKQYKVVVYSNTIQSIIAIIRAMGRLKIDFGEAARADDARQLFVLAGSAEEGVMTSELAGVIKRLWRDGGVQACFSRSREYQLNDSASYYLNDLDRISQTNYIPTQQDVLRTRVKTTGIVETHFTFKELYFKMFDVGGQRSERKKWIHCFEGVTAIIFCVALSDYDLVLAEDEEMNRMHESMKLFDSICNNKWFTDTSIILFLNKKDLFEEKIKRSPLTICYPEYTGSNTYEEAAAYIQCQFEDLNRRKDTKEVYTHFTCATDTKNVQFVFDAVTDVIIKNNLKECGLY

Key:
Gαi3-FLAG = Gαi3-FLAG (UniProt P08753); assay: co-IP; lysates of HEK293T cells transfected with Gαi3-FLAG and full-length GIV; anti-FLAG IgG and protein G agarose, 4 °C; NF023 0–100 µM added to the lysates; immunoblots for FLAG, GIV and pan-Gβ
[1] = molecular target: T1, human His-GIV-CT (1660–1870) (human, UniProt Q3V6T2-3 1660-1870); assay: condition: only with GDP + AlF4− (30 µM AlCl3, 10 mM NaF); AlphaScreen or HTRF; 75 nM His-GIV-CT and 75 nM GST-Gαi3 on beads in buffer with GDP + AlF4− (30 µM AlCl3, 10 mM NaF); both purified
T1 construct: also called His-tagged GIV 1660–1870; source: E. coli BL21(DE3), purified (HisPur Cobalt resin, dialysed against PBS)
T1 sequence (looked up): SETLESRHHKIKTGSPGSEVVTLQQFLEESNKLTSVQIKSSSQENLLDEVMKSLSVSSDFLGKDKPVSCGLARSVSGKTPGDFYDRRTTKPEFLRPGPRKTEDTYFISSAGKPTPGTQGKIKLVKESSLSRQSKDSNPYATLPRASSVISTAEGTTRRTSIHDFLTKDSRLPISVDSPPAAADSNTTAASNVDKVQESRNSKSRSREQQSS

| Substance | binding (Gαi3-FLAG) | binding [1] |
| --- | --- | --- |
| full-length GIV (from UniProt Q3V6T2-3 1-1870) | binds |  |
| rat GST-Gαi3 (from UniProt P08753 1-354) |  | no binding |
